Experimental data reported in paper PMC10165932, “Tripeptides conjugated with thiosemicarbazones: new inhibitors of tyrosinase for cosmeceutical use” (Journal of Enzyme Inhibition and Medicinal Chemistry, 2023).
Where a SMILES comes first, the peptide text is derived from it.

test system: B16F0 murine melanoma cell line; type: cell-based; details: ratio, B16F0 (Figure 3)
Method: The effect of the synthetic compounds on melanogenesis inhibition was performed in B16F0 murine melanoma cell line. The mouse model of human skin is often employed in skin biology and cancer research due to numerous similarities.[62] B16F0 murine melanoma cell line shares most of the melanogenesis with human melanocytes. Therefore, it is the proper model for screening the effect of potential inhibitors on melanogenesis.[63]

Compared with `CC(C(=O)N[C@@H](Cc1ccccc1)C(=O)N[C@@H](Cc1ccccc1)C(=O)N[C@@H](Cc1ccc(O)cc1)C(=O)O)c1cccc(C(=NNC(N)=S)c2ccccc2)c1` (mixture of isomers) [Compound 10, TSC2-FFY-OH], `CC(C(=O)N[C@@H](Cc1ccccc1)C(=O)N[C@@H](Cc1c[nH]c2ccccc12)C(=O)N[C@@H](Cc1ccc(O)cc1)C(=O)O)c1cccc(C(=NNC(N)=S)c2ccccc2)c1` (mixture of isomers) [Compound 12, TSC2-FWY-OH] is higher in “IC50 cell proliferation/ IC50 melanin production” value: 0.5 for the first, 0.7 for the second.

Going from `CC(C(=O)O)c1cccc(/C(=N\NC(N)=S)c2ccccc2)c1` (stereo not drawn) [Compound 2, thiosemicarbazone of ketoprofen] to `C/C(=N\NC(N)=S)c1ccc(C(=O)N[C@@H](Cc2ccccc2)C(=O)N[C@@H](Cc2ccccc2)C(=O)N[C@@H](Cc2ccc(O)cc2)C(=O)O)cc1` [Compound 13, TSC3-FFY-OH], the “IC50 cell proliferation/ IC50 melanin production” value falls from 3.6 to 0.3.

Going from `CC(=O)N[C@@H](Cc1ccccc1)C(=O)N[C@@H](Cc1ccccc1)C(=O)N[C@@H](Cc1ccc(O)cc1)C(=O)O` [Compound 4, Ac-FFY-OH] (Ac-Phe-Phe-Tyr-OH) to `CC(=O)N[C@@H](Cc1ccccc1)C(=O)N[C@@H](Cc1ccc(O)cc1)C(=O)N[C@@H](Cc1ccc(O)cc1)C(=O)O` [Compound 5, Ac-FYY-OH] (Ac-Phe-Tyr-Tyr-OH), the “IC50 cell proliferation/ IC50 melanin production” value rises from 0.4 to 0.6.

Going from `CC(=O)N[C@@H](Cc1ccccc1)C(=O)N[C@@H](Cc1c[nH]c2ccccc12)C(=O)N[C@@H](Cc1ccc(O)cc1)C(=O)O` [Compound 6, Ac-FWY-OH] (Ac-Phe-Trp-Tyr-OH) to `C/C(=N\NC(N)=S)c1ccc(C(=O)N[C@@H](Cc2ccccc2)C(=O)N[C@@H](Cc2c[nH]c3ccccc23)C(=O)N[C@@H](Cc2ccc(O)cc2)C(=O)O)cc1` [Compound 15, TSC3-FWY-OH], the “IC50 cell proliferation/ IC50 melanin production” value rises from 0.6 to 1.0.

Going from `NC(=S)N/N=C/c1ccc(C(=O)N[C@@H](Cc2ccccc2)C(=O)N[C@@H](Cc2ccccc2)C(=O)N[C@@H](Cc2ccc(O)cc2)C(=O)O)cc1` [Compound 7, TSC1-FFY-OH] to `NC(=S)N/N=C/c1ccc(C(=O)N[C@@H](Cc2ccccc2)C(=O)N[C@@H](Cc2ccc(O)cc2)C(=O)N[C@@H](Cc2ccc(O)cc2)C(=O)O)cc1` [Compound 8, TSC1-FYY-OH], the “IC50 cell proliferation/ IC50 melanin production” value rises from 0.5 to 0.6.

Compared with `NC(=S)N/N=C/c1ccc(C(=O)N[C@@H](Cc2ccccc2)C(=O)N[C@@H](Cc2c[nH]c3ccccc23)C(=O)N[C@@H](Cc2ccc(O)cc2)C(=O)O)cc1` [Compound 9, TSC1-FWY-OH], `C/C(=N\NC(N)=S)c1ccc(C(=O)N[C@@H](Cc2ccccc2)C(=O)N[C@@H](Cc2ccc(O)cc2)C(=O)N[C@@H](Cc2ccc(O)cc2)C(=O)O)cc1` [Compound 14, TSC3-FYY-OH] is higher in “IC50 cell proliferation/ IC50 melanin production” value: 0.5 for the first, 0.6 for the second.
